Values of other authors, collected in patent US20080161607A1, “Processes for preparation of polymorphic form II of sertraline hydrochloride” (Teva Pharmaceuticals USA, Inc., priority 2002, published 2008).

Conditions: disclosed in U.S. Pat. No. 5,248,699; cited from earlier work

Q: Which “thermodynamic stability of crystalline form” value does the source give for `CN[C@H]1CC[C@@H](c2ccc(Cl)c(Cl)c2)c2ccccc21.Cl` [Form II, (1S-cis)-4-(3,4 dichlorophenyl)-1,2,3,4-tetrahydro-N-methyl-1-naphthalenamine hydrochloride] here?
A: Its value is “metastable”.
